Source: PubChem BioAssay AID1159578 (Peter MacCallum Cancer Centre, 2015)
Shown is one part, drawn at random, of about 18,000 reagents. Over the whole deposit, about 1,030 (5.7%) were called active. 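Inactive calls also include pools with fewer than 3300 nuclei, whose migration was not assessed.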 Raw values vary from plate to plate and are shown uncorrected.

Test: 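Knock-downs that alter how fast lymphatic endothelial cells migrate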 (primary screen)
Cell system: human lymphatic endothelial cells
Knock-down reagent: siRNA pool against human genes, 40 nM
Duration: 48 h after transfection
Measurement: 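High-content imaging of dye-stained cells in a scratch assay measures filled wound area and nuclei per well; duplicate means given as ratio to mock and robust z-score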
Scale: migration robust z-score: higher = faster migration into the scratch; migration relative to mock: higher = more scratch area covered than mock; nuclei per well: higher = more cells in the well
Hit rule: 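Pools averaging fewer than 3300 nuclei are never called; remaining pools count as changed when migration robust z lies outside -2 to 2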
Calls: active = migration changed; inactive = no migration change, or too few cells

no.	gene	migration robust z-score	migration class with cell-count check	migration relative to mock	nuclei per well, duplicate mean	call
1	FREM1 (FRAS1 related extracellular matrix 1)	1.43	migration z between -2 and 2; enough cells	1.25	6414	inactive
2	RAB43 (RAB43, member RAS oncogene family)	-0.15	migration z between -2 and 2; enough cells	0.85	5684	inactive
3	PHTF1 (putative homeodomain transcription factor 1)	0.02	migration z between -2 and 2; enough cells	0.81	3824	inactive
4	GPATCH1 (G-patch domain containing 1)	0.5	migration z between -2 and 2; enough cells	1.02	5548	inactive
5	ZNHIT6 (zinc finger HIT-type containing 6)	-1.69	migration z between -2 and 2; enough cells	0.44	4992	inactive
6	GOPC (golgi associated PDZ and coiled-coil motif containing)	1.35	migration z between -2 and 2; enough cells	1.06	6427	inactive
7	ERI3 (ERI1 exoribonuclease family member 3)	-0.7	migration z between -2 and 2; enough cells	0.7	6760	inactive
8	PYY (peptide YY)	-0.99	migration z between -2 and 2; enough cells	0.63	5827	inactive
9	SLC7A2	0.06	migration z between -2 and 2; enough cells	0.9	5618	inactive
10	HLX (H2.0 like homeobox)	-2.91	migration z below -2; enough cells	0.24	3481	active
11	RWDD4 (RWD domain containing 4)	-1.99	migration z between -2 and 2; enough cells	0.36	3950	inactive
12	HOXB8 (homeobox B8)	-0.18	migration z between -2 and 2; enough cells	0.84	5437	inactive
13	SIRT7 (sirtuin 7)	-0.13	migration z between -2 and 2; enough cells	0.78	5880	inactive
14	POLR1E (RNA polymerase I subunit E)	-2.12	migration z below -2; enough cells	0.33	5057	active
15	LDLRAD3 (low density lipoprotein receptor class A domain containing 3)	-0.98	migration z between -2 and 2; enough cells	0.63	5122	inactive
16	F2RL1 (F2R like trypsin receptor 1)	-0.49	migration z between -2 and 2; enough cells	0.71	6241	inactive
17	SULT1E1 (sulfotransferase family 1E member 1)	1.14	migration z between -2 and 2; enough cells	1.02	5053	inactive
18	DPM1 (dolichyl-phosphate mannosyltransferase subunit 1, catalytic)	-0.5	migration z between -2 and 2; enough cells	0.71	5654	inactive
19	IL25 (interleukin 25)	-1.75	migration z between -2 and 2; enough cells	0.43	3707	inactive
20	MMP7 (matrix metallopeptidase 7)	0	migration z between -2 and 2; enough cells	0.8	5566	inactive
21	MROH9 (maestro heat like repeat family member 9)	-0.12	migration z between -2 and 2; enough cells	0.85	6677	inactive
22	CSNK1E (casein kinase 1 epsilon)	-2.21	under 3300 nuclei; migration not judged	0.38	2584	inactive
23	PCMT1 (protein-L-isoaspartate (D-aspartate) O-methyltransferase)	0.88	migration z between -2 and 2; enough cells	0.98	7007	inactive

Part of the list above, limited to “migration relative to mock”:
DPM1 (dolichyl-phosphate mannosyltransferase subunit 1, catalytic) = 0.71
IL25 (interleukin 25) = 0.43
